These results are taken from PMC9972942, “E6-Encoded by Cancer-Causing Human Papillomavirus Interacts with Aurora Kinase A To Promote HPV-Mediated Carcinogenesis” (Journal of Virology, 2023).

By UniProt entry, the sequences of proteins in these tests, tags left out.
UniProt P03126: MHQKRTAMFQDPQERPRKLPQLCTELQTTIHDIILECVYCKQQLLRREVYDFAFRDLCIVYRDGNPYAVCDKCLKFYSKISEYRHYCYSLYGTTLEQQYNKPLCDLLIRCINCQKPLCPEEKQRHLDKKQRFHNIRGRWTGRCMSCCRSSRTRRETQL
UniProt O14965: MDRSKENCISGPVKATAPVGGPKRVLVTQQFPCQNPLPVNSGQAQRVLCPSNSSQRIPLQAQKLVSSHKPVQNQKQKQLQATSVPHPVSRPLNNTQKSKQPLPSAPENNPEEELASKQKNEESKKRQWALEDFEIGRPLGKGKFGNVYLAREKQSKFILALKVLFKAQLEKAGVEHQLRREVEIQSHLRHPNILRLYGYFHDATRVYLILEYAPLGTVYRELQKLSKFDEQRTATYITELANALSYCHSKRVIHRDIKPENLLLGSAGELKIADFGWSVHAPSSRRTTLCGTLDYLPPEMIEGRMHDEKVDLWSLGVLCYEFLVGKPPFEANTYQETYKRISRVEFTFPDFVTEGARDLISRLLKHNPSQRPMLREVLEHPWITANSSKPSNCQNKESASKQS

These are yes or no findings as the source states them, for the method shown. In cells and extracts the contact can be indirect. Some results given as binding are weak or reduced against the parent protein; the word gives no strength.

For this experiment, the target named is GST-tagged HPV16 E6 wild type (human papillomavirus type 16) (UniProt P03126). Put plainly: pull-down; purified GST fusion proteins on glutathione-conjugated agarose incubated with equal amounts of in vitro-translated HA-AurA, 1 h at room temperature; washed 3 times with PBS containing 0.1% Tween 20; bound AurA detected by Western blotting with an HA-specific antibody; bands quantified with ImageJ relative to GST-16E6 (n = 3); only the target purified. In general terms: Immunoblotting shows a protein as a band on a membrane.

Consider “Aurora kinase A (HA-AurA, in vitro translated) (from UniProt O14965 1-403) (enzyme)”, for which the binding entry is reported as “binds”.
